The values that follow come from patent publication US20260159519A1, “IMIDAZOPYRIDAZINE SUBSTITUTED BENZENE RING DERIVATIVE, PREPARATION METHOD, PHARMACEUTICAL COMPOSITION AND USE” (SHANGHAI SIMR BIOTECHNOLOGY CO., LTD., priority 2022, published 2026).

In data set [1] the test system is Chinese hamster ovary cells (CHO-WBL cells). Kind of data set: In vitro micronucleus assay. It counts as cell-based. The following applies: 3-hour treatment with S9, 3-hour and 24-hour treatment without S9; overall judgment.
Data set [2] deals with human α2-GABAA receptor (BZD site, membrane protein of HEK293 cells) (Homo sapiens, UniProt P18507+P47869). In words: Radioligand competitive binding assay (3H-flunitrazepam) at the BZD site of the α2-GABAA receptor. The following applies: read-out: α2 Ki; competition with 1 nM 3H-flunitrazepam; Ki calculated from IC50.

Structures were worked out from names or drawings and are uncertain.

In the case of `COc1c(-c2cc(-c3cnnc4c3ncn4C(C)C)ccc2F)ccc2c1nnn2C`, in data set [1], the “Results of in vitro micronucleus assay” value is “Negative”. The Ki in data set [2] is 3.09 nM.

`CCn1cnc2c(-c3ccc(F)c(-c4cc5oc(=O)n(CC)c5cc4OC)c3)cnnc21`: the “Results of in vitro micronucleus assay” value in data set [1] was “Negative”. Moreover, the Ki in data set [2] was 3.95 nM.

What is called Ki is a dissociation constant, usually derived from enzyme kinetics or from competition with a known ligand.
